Results deposited as PubChem BioAssay AID602196 (INSERM, 2012)
Purpose: 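Modifiers of cisplatin sensitivity in A549 cells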. System: human A549 lung cancer cells. Knock-down reagent: siRNA pair against human genes. Timing: 48 h transfection before cisplatin; time from cisplatin to read-out not stated. Challenge: cisplatin at a dose killing half of control-siRNA cells; exact dose and duration not given. Measurement: 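Cisplatin cell death as a shift from the 50% death seen with control siRNA; siRNAs toxic or growth-blocking alone scored 0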. Scale: two-siRNA summed score (-2 to +2): higher = both siRNAs protect from cisplatin killing; -2 means both sensitise. Active means: 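Each siRNA scores 0 if harmful alone by LDH or WST-1, otherwise +1 if it reduces and -1 if it increases cisplatin killing; a gene is active when both siRNAs agree (sum +2 or -2)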. Meaning of the calls: active = both siRNAs shift cisplatin killing the same way; inactive = no consistent shift, or siRNA harmful alone.
The whole screen tested about 23,000 reagents; this is a random part of them. Over the whole deposit, 455 (2%) were called active. 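Active includes both protection and sensitisation; some change values fall well beyond the stated -50 to +50 range.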 A number with no mark means an inactive call. Further read-outs or replicates are left out here. The record does not give: the amount of reagent.

How did the screen score ZNF653?
two-siRNA summed score (-2 to +2): 0

For ABCC9, what does the deposit list?
two-siRNA summed score (-2 to +2): 0

What is on record for LINC02908?
two-siRNA summed score (-2 to +2): 0

For LOC54103, how do the results read?
two-siRNA summed score (-2 to +2): 0

For KAT8, how do the results read?
two-siRNA summed score (-2 to +2): 0

How did the screen score FSTL4?
two-siRNA summed score (-2 to +2): -1

What is on record for HLA-C?
two-siRNA summed score (-2 to +2): 1

For BIRC3, what does the deposit list?
two-siRNA summed score (-2 to +2): 0

What did the screen give for S1PR5?
two-siRNA summed score (-2 to +2): 0

With LCN8, what does the deposit list?
two-siRNA summed score (-2 to +2): 0

With CEP126, what does the deposit list?
two-siRNA summed score (-2 to +2): 0

With C3orf62, what was measured?
two-siRNA summed score (-2 to +2): 1

What did the screen give for OR7A17?
two-siRNA summed score (-2 to +2): 0

A run of entries taken from the entries so far:
LOC54103 — two-siRNA summed score (-2 to +2) = 0
KAT8 — two-siRNA summed score (-2 to +2) = 0
FSTL4 — two-siRNA summed score (-2 to +2) = -1

The listing continues:
What did the screen give for SLCO1B1?
two-siRNA summed score (-2 to +2): -1

Which result is listed for LOC440507?
two-siRNA summed score (-2 to +2): 0

How did the screen score LOC440889?
two-siRNA summed score (-2 to +2): 0

For LOC342096, what was measured?
two-siRNA summed score (-2 to +2): 0

With TMEM196, what was measured?
two-siRNA summed score (-2 to +2): -1

How did the screen score NEO1?
two-siRNA summed score (-2 to +2): 1

For CLIC3, what was measured?
two-siRNA summed score (-2 to +2): 0

With LOC387745, what was measured?
two-siRNA summed score (-2 to +2): 0

How did the screen score LOC441360?
two-siRNA summed score (-2 to +2): 0

With FUBP1, what does the deposit list?
two-siRNA summed score (-2 to +2): -1

What is on record for KRT19?
two-siRNA summed score (-2 to +2): -1

For EXO1, what was measured?
two-siRNA summed score (-2 to +2): -1

Which result is listed for CDC42EP2?
two-siRNA summed score (-2 to +2): 0

For SNRNP40, what was measured?
two-siRNA summed score (-2 to +2): 0

What did the screen give for HEY1?
two-siRNA summed score (-2 to +2): -1

With BPNT1, how do the results read?
two-siRNA summed score (-2 to +2): 1

What did the screen give for C19orf47?
two-siRNA summed score (-2 to +2): 1

For ZNF471, what does the deposit list?
two-siRNA summed score (-2 to +2): 0

Which result is listed for NEMF?
two-siRNA summed score (-2 to +2): 1

For GMFG, how do the results read?
two-siRNA summed score (-2 to +2): -1

What did the screen give for AOPEP?
two-siRNA summed score (-2 to +2): 0

How did the screen score CABLES2?
two-siRNA summed score (-2 to +2): 0

For ZNF514, what does the deposit list?
two-siRNA summed score (-2 to +2): 0

For LOC388686, what was measured?
two-siRNA summed score (-2 to +2): 0

Which result is listed for NUDT16L1?
two-siRNA summed score (-2 to +2): 0

Which result is listed for TBC1D7?
two-siRNA summed score (-2 to +2): 0

Which result is listed for LINC02870?
two-siRNA summed score (-2 to +2): 0
